According to PMC10938136:
No constants are given. Whether binding was seen depends on the method and setting. A result given as binding can be weak or reduced; the word gives no strength. For part of these data: Binding seen in cells or lysates may run through a third protein.

Amino acid sequences for entries named in this document (tags omitted). A change or cut given only in a name is not applied to a line headed by its entry.
UniProt F2QY05: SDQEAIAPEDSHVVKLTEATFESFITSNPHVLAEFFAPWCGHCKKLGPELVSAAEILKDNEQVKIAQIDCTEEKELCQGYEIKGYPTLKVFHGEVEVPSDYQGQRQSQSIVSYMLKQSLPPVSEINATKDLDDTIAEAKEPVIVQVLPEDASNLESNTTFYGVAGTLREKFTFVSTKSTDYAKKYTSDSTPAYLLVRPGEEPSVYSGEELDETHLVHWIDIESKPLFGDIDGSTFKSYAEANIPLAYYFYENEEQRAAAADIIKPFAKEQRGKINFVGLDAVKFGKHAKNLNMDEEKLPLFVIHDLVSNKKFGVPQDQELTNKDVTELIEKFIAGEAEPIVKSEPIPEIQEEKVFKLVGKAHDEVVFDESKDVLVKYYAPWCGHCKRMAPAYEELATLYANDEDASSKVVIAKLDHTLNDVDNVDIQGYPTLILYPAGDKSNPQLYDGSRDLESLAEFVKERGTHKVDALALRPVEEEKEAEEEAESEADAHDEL

What was measured:
[1] = molecular target: Komagataella phaffii Ero1 (Komagataella phaffii) (UniProt F2QNN1); assay: pull-down; co-expression in E. coli cytoplasm (small scale, 20 °C), cleared lysate on HisPur cobalt agarose (IMAC), elution with 50 mM EDTA in 20 mM sodium phosphate, 150 mM NaCl, pH 7; SDS-PAGE, Coomassie; Fig. 1 lanes 1, 2, 5, 6
[2] = molecular target: Komagataella phaffii Ero1 (Komagataella phaffii) (UniProt F2QNN1); assay: pull-down; co-expression of Erp41 and Ero1 in the presence of KpPDI CyDisCo (Pdi1, Ero1 and Erp41 together) in E. coli, IMAC on HisPur cobalt agarose, SDS-PAGE; Fig. 1 lane 7
[3] = molecular target: Komagataella phaffii Ero1 (Komagataella phaffii) (UniProt F2QNN1); assay: NEM trapping and non-reducing SDS-PAGE; IMAC eluate of co-expressed Ero1 and Pdi1 treated with 25 mM NEM, SDS-PAGE without reducing agent; Fig. 1 lane 1

Measured: binding

Komagataella phaffii Pdi1 (from UniProt F2QY05) (enzyme)
binds: all assays above
